Laboratory results as given in publication PMC6160412.
Substitutions are numbered along the chain they refer to. No constants are given. Whether binding was seen depends on the method and setting. For some assays here: A result given as binding can be weak or reduced; the word gives no strength. Blank lines part the entries; values can stand above or below the substance they belong to.

Protein sequences, listed by entry. Tags and fused reporters are not part of them. Lines headed by an entry give the natural chain unless they say otherwise; changes in a name come on top. Residues count along the entry.
UniProt P58400: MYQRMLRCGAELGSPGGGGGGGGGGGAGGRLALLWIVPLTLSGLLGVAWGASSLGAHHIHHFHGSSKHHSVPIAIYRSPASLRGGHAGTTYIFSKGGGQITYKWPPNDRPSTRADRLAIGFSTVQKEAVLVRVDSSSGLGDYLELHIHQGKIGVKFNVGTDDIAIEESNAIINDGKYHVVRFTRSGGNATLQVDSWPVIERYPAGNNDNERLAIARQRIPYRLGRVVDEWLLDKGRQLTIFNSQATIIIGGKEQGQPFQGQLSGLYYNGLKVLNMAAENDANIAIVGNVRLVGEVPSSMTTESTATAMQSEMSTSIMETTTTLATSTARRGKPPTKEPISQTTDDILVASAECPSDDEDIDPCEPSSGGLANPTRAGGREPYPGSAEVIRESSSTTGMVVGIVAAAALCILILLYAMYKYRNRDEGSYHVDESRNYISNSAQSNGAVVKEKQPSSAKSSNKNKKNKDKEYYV
UniProt Q99K10, residues 46-666: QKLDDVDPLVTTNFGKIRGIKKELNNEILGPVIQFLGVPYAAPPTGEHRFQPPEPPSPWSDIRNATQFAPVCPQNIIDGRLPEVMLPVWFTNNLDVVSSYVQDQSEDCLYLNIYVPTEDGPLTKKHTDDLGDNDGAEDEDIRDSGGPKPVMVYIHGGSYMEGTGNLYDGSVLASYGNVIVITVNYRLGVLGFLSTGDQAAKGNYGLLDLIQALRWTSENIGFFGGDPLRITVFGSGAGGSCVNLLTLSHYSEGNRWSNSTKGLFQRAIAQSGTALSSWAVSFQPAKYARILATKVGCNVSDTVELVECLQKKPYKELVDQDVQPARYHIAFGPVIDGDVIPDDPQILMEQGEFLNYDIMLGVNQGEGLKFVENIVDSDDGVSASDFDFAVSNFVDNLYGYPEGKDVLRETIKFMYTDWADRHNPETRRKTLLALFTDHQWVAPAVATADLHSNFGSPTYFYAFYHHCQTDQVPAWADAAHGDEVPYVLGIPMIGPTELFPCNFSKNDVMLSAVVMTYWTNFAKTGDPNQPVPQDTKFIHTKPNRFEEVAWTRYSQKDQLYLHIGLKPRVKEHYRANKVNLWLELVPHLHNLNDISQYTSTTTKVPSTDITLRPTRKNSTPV

Assays:
[1] = target: human LRRTM2 LRR domain, H355A mutant (human) (UniProt O43300); test: crystal structure; 20 µM LRRTM2^H355A and 40 µM Nrxn1β mixed 1:2 with 2 mM CaCl2, neuraminidase added; 15% PEG3350, 0.1 M sodium/potassium phosphate pH 6.8, 20 °C; four complexes in the asymmetric unit; both purified
[2] = target: T1, LRRTM2-based LRRTM2–LRRTM3 chimera (LRRTM2+3) LRR (human) (UniProt O43300); test: SPR; Biacore T200; wild-type or mutant LRRTM immobilised on a CM5 chip by amine coupling; Nrxn1β as analyte in two-fold dilutions from 40 µM (from 160 µM for +S4 and R206A); 25 °C; 20 mM Hepes-NaOH pH 7.5, 150 mM NaCl, 2 mM CaCl2, 0.005% Tween-20, 0.5 g/L BSA; equilibrium KD; both purified
T1 sequence: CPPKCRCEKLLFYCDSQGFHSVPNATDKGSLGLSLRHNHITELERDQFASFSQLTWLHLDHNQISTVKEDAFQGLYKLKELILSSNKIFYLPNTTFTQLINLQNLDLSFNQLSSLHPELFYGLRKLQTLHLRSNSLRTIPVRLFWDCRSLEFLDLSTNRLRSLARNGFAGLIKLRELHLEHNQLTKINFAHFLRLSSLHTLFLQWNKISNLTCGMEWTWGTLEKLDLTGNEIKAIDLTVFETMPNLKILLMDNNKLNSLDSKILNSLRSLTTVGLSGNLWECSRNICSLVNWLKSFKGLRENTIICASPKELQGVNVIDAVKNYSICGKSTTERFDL

[3] = target: T2, human LRRTM2 LRR domain, F357A mutant (human) (UniProt O43300); test: as above
T2 sequence: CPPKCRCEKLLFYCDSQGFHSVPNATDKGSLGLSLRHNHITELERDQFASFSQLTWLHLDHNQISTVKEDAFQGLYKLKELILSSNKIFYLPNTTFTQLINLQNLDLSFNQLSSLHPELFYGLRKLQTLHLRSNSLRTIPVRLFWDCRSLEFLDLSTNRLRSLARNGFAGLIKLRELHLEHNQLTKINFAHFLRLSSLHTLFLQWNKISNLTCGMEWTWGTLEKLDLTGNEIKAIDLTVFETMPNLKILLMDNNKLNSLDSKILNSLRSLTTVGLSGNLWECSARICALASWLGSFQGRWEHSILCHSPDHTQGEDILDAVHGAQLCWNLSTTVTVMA

[4] = target: T3, human LRRTM2 LRR domain, E348Q mutant (human) (UniProt O43300); test: as above
T3 sequence: T2 sequence with E315Q, A324F

[5] = target: human LRRTM2 LRR domain, wild type (human) (UniProt O43300); test: SPR; competition: LRRTM2 immobilised; Nrxn1β (–S4):NL1 mixtures at 1:1 or 1:2.5 molar ratio co-injected, two-fold dilutions from 40 µM Nrxn1β and 40 or 100 µM NL1; 25 °C; same buffer as the direct SPR; both purified
[6] = target: human LRRTM2 LRR domain, wild type (human) (UniProt O43300); test: SPR; Biacore T200; wild-type or mutant LRRTM immobilised on a CM5 chip by amine coupling; Nrxn1β as analyte in two-fold dilutions from 40 µM (from 160 µM for +S4 and R206A); 25 °C; 20 mM Hepes-NaOH pH 7.5, 150 mM NaCl, 2 mM CaCl2, 0.005% Tween-20, 0.5 g/L BSA; equilibrium KD; both purified
[7] = target: human Nrxn1β LNS domain (–S4), wild type (human) (UniProt P58400); test: SPR; competition: LRRTM2 immobilised; Nrxn1β (–S4):NL1 mixtures at 1:1 or 1:2.5 molar ratio co-injected, two-fold dilutions from 40 µM Nrxn1β and 40 or 100 µM NL1; 25 °C; same buffer as the direct SPR; both purified
[8] = target: GST-fused human Nrxn1β (–S4) LNS domain (human) (UniProt P58400); test: pull-down; GST-Nrxn1β (–S4) (5 µM) on Glutathione Sepharose FF with NL1 (5 µM) and LRRTM2 at 1:1:1 or 1:1:5 molar ratio; 20 mM Hepes-NaOH pH 7.5, 150 mM NaCl, 2 mM CaCl2, 0.005% Tween-20; SDS-PAGE with Coomassie staining; both purified

binding [1]: binds
binding [2]: no binding (tested: 40 µM)
binding [3]: no binding (tested: 40 µM)
binding [4]: no binding (tested: 40 µM)
binding [5]: binds
Substance: human Nrxn1β LNS domain (–S4), wild type (from UniProt P58400-1) (domain or fragment)

binding [6]: binds weakly
Substance: human Nrxn1β LNS domain (–S4), D141A mutant (from UniProt P58400-2) (domain or fragment)

binding [7]: binds
binding [8]: binds
Substance: mouse NL1 extracellular domain (from UniProt Q99K10 46-666) (domain or fragment)
